Reference: PubChem BioAssay AID1347426 (Functional Genomics Laboratory (NCATS/FGL), 2020)
In all, about 31,000 sequences went through this assay and about 1,400 (4.5%) were called active.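 How the source made its calls: active means median seed-adjusted z-score above 1 or below -1; inactive means the rest.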 The list shows a part of the results.

assay: Novel Modifiers of Survival Motor Neuron (SMN) Protein: Gene Identification via Genome-wide siRNA Screen; settings: HEK293T SMN2-luciferase reporter, siRNA knockdown, 72 h; actives lie on both sides;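 further: luminescence tracks full-length SMN protein made from the SMN2 reporter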
Outline: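 Genome-wide siRNA screen (10418 genes, 3 siRNAs each, 1 pmol per well) by reverse transfection in HEK293T cells stably carrying an SMN2-luciferase reporter; luminescence after 72 hours, normalized to negative-control siRNA, log10-transformed, MAD-scored.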

Row | Sequence | median seed-adjusted z-score
1 | CAACAAUUGAGGCAUCAAATT against PNLIPRP1 | inactive: -0.725
2 | GGAAAAAUAUCCAGCAAAATT against UBE2E2 | active: -1.77
3 | GGAGUCGUGUUUUGGAAAATT against SHPK | inactive: 0
4 | CGGUAUGAAGGAAACGUGATT against DHX37 | inactive: -0.126
5 | CCUGAGUUUUAAAUUCGAATT against COMTD1 | inactive: 0.0487
6 | GGUAGUAUAUGUCUGGACATT against UBE2A | inactive: 0.306
7 | GAAUAUAAGUGGGAGAACATT against CD2BP2 | inactive: -0.455
8 | CGUGGGUAAUGAUGCGGAATT against TOM1 | inactive: 0.774
9 | GCAUGCAGAUGUUCGGCAATT against CACNA1F | inactive: 0.22
10 | GGUCGAAGUUGAGUAUGAATT against ADSSL1 | inactive: 0.0976
11 | CAACUUCCCUGAUCUCAAUTT against CPN1 | inactive: 0.17
12 | GCUAUAACCUCCAACCUGATT against RGL2 | inactive: 0.174
13 | GACAUAUAAUGACAUAGAUTT against TRAK1 | inactive: 0.298
14 | GCGUUGCAAUUAUAAGGUATT against HTR2C | inactive: -0.115
15 | GACUCAUGUUUGUAAACGATT against MPDZ | inactive: -0.398
16 | GAGCAGUAAGACUAACGAATT against ANKIB1 | inactive: -0.00367
17 | CCGGAGAUCUUAAUAGGAATT against ECHS1 | inactive: 0.0273
18 | GCAUGUCUCUGACACCUCATT against KRT5 | inactive: -0.325
19 | CCACCUUGCUCAACUAUGATT against AOC3 | inactive: -0.474
20 | GCCUCCAAAGGUUACAUUUTT against UBE2E1 | inactive: 0.888
21 | GCUGCAAGAAUCUACUAUATT against HEPH | inactive: -0.293
22 | CAUCGAAAAGGUCUCCUUUTT against NUMBL | inactive: -0.139

Row | Sequence | median seed-adjusted z-score
23 | AGAGGAUUCAUUUCUUCUATT against ACER1 | inactive: 0.308
24 | GCUACGUCCUUUACCCGAATT against HEXA | inactive: -0.551
25 | CAUUCGCUCUGGUACUUAUTT against CRYZ | inactive: -0.809
26 | GAACGGGUAUGUGGAGAUATT against INHBA | inactive: 0.361
27 | CCAUCAAUGGAGAUCCGGATT against ADAMTS4 | inactive: -0.0153
28 | CGAGAGCAACUACCUCUUUTT against PPP1CA | inactive: 0.115
29 | CGGGAACUCUAAUCCUUGATT against AKAP5 | inactive: 0.0592
30 | GCCCAUCGCUCGAAAAAGATT against SLC39A3 | inactive: 0.0298
31 | GUUCCUCAGGAGUACCUUCTT against CSHL1 | inactive: -0.54
32 | GGAUCAAGAUAUUCAAGUATT against PKD2L1 | inactive: 0.445
33 | AGUACAACUUCAUCGCAGATT against HTRA2 | inactive: -0.503
34 | CCACUCCAUUAAGAGGCUATT against ATP6V1F | inactive: -0.428
35 | GCAGGUGUCUAGUAGUUCUTT against RFWD3 | inactive: 0.554
36 | GGAUGUACAUGUGGUCGAATT against ITGA8 | inactive: -0.215
37 | AGGUGCUCCUGAUGAAAGATT against RBMXL2 | inactive: -0.387
38 | ACUUCUUCGUUUGUCCUCATT against FOSB | inactive: 0.266
39 | GGAUACGAGUGGUGGUUGATT against GALC | inactive: 0
40 | GACGGAUUCAAGUACCUUUTT against AMFR | inactive: -0.15
41 | GCCUGAAGGUUCUAAAGAATT against SIRT7 | inactive: -0.427
42 | GUGAGAAAUUUGAACGGUUTT against PIK3CD | inactive: 0.00831
43 | CGAGAUAUAAGUUCGAAGATT against ZP2 | inactive: 0.0455
44 | AGCGCGACCUUAUCUCCAATT against CD74 | inactive: 0.0748

Row | Sequence | median seed-adjusted z-score
45 | GCACCUACCUUAGAAAACATT against SSX2 | inactive: -0.583
46 | CCACCACAGAUUUUCCUAUTT against CD300A | inactive: -0.414
47 | GCAAAUCCACGUUAAUGGATT against 11-Sep | inactive: -0.245
48 | GGUUCAUCAUCUACACUUUTT against SSTR2 | inactive: -0.162
49 | GCAGAGAAAUCUUCCGGAATT against POLR1C | inactive: -0.0299
50 | UCAGAGCAGUUUACAGCAATT against TUBB4Q | inactive: -0.0288
51 | AGACCGAGGUGGACUGUAATT against FSTL1 | inactive: 0.503
52 | GCUUGCAGCUUUUUAAAGATT against PIGC | inactive: -0.3
53 | GGUACUUGAUAGCCUCUUATT against HMGN1 | inactive: -0.183
54 | GGUGGUGAAUUAUGACCAATT against MYLK2 | inactive: -0.0498
55 | GCAUCUACGUCAUGGGCUUTT against PSAT1 | inactive: -0.706
56 | ACGGCCGAGUGAUCCCUUUTT against DNAJB5 | inactive: -0.444
57 | UCUCGUCCGUGGUAGCUGATT against E4F1 | inactive: 0.698
58 | GCAAGUUUCUACUGAGUCATT against KLHL17 | inactive: 0.139
59 | GUGACUUUGUUAUCCAGAATT against PCDH1 | inactive: -0.514
60 | CCCUCACCGUUUACAGCAATT against NR6A1 | inactive: -0.287
61 | GCUGCACGAUUUAUGGAAATT against GMIP | inactive: 0.0686
62 | CCAUCCACGUUGCUAAUAATT against DMBT1 | inactive: -0.131
63 | GUGCGAAUGUACAACAAGATT against HKDC1 | inactive: -0.119
64 | GGAUACCUCUGAACACCGATT against NUP85 | inactive: 0.948
65 | CUGACUUCCCAAACCCUUATT against MASP1 | inactive: 0.653
66 | GGAAAAACAUGAAGUUUAUTT against SULT2A1 | inactive: -0.123

Row | Sequence | median seed-adjusted z-score
67 | GACCUUAUAUGUGCAAGGATT against ZNF8 | inactive: 0.97
68 | AAGAUAUGCUGGUACAUCUTT against RAD51C | inactive: -0.0724
69 | GCAUAUGCGGUACUCAGCATT against DNAJB12 | inactive: 0
70 | GCAGCGAACUCAAGGAACATT against POLA2 | inactive: -0.114
71 | GCUGGAAGGUGAACCGUUATT against ADCYAP1R1 | inactive: 0.404
72 | GACUGAUGCUUUGACUGAATT against NPTX2 | inactive: 0.0558
73 | CAACAGCACCAGUUUGACATT against NAGLU | inactive: -0.526
74 | AAUGAGAGGUUGAUCUGUATT against ZBTB34 | inactive: 0.0298
75 | GGAAGAUUGUUGAUCGAAUTT against RCN1 | inactive: 0.236
76 | GGAAUUGGACUGAUCCUUUTT against GYS2 | inactive: 0.0101
77 | GCUUUUAUGAAGUCUUUAATT against SLC25A3 | inactive: -0.495
78 | CGCCCGCGAUUACUACCAUTT against HSPA12B | inactive: -0.141
79 | GCAUGAUCCUGUCAGUAAATT against RPA1 | inactive: -0.27
80 | CGUCAACGAUCGGAAGAAATT against TTLL9 | inactive: 0.0534
81 | AGAAGUACUCGGACAAGGATT against BAIAP2 | inactive: -0.0497
82 | CUAAUGAGUUUGUCUAAUATT against PKDREJ | inactive: 0.376
83 | GGACGAAUCUUCUUUAAGATT against IMMP1L | inactive: -0.444
84 | AGAUUGUUCUCCUCUGAAATT against ABCG8 | inactive: -0.0233
85 | CAACACCGCCCACAACAAATT against TRIM25 | inactive: 0.859
86 | CUUUUGAACAGAUCGAUGATT against EXO1 | inactive: 0.547
87 | CGUCAAUUCCGGUACACUUTT against PIGM | active: 1.36
88 | GAAGAAUUCAAGACGGAGATT against GPR27 | inactive: -0.678

Quoted at random: 4 records from the list.
Row | Sequence | median seed-adjusted z-score
74 | AAUGAGAGGUUGAUCUGUATT against ZBTB34 | inactive: 0.0298
70 | GCAGCGAACUCAAGGAACATT against POLA2 | inactive: -0.114
68 | AAGAUAUGCUGGUACAUCUTT against RAD51C | inactive: -0.0724
79 | GCAUGAUCCUGUCAGUAAATT against RPA1 | inactive: -0.27

More entries follow.

Row | Sequence | median seed-adjusted z-score
89 | GAAGGUGUUUUCGUAAAUATT against CYBRD1 | inactive: 0.623
90 | GGGUUUAACUGGGAACUCUTT against GALNT8 | inactive: -0.283
91 | CACCCGUUGUCUCACCAUUTT against DCHS1 | inactive: 0.565
92 | GAAGAAACCUUGACAAAAATT against KHDRBS3 | inactive: 0.0681
93 | AGUUCACCCAGUACGACAATT against IL4I1 | inactive: -0.441
94 | GGAGGAGAGUUACCUACAATT against PILRB | inactive: 0.0351
95 | CAACAGCACCACACGAAAATT against GGT1 | inactive: -0.0421
96 | CCGAUGUCAUUGACCUGUUTT against RIPK4 | inactive: 0.188
97 | CAAUCUCCGCAAAAAUGGATT against PCMT1 | inactive: 0.139
98 | AAAUGUGGAUUAUUCCUUUTT against KIRREL | inactive: -0.74
99 | GAAUUUACCUACCACAAAATT against RASA3 | inactive: 0.0056
100 | GGUCCUUUUUCUCCGCCUATT against BCL2L10 | inactive: 0.361
101 | CCCUGGUAUUGUCCGAAUUTT against USP15 | inactive: -0.405
102 | CUAUCACGACGAAAACGGATT against ZMYND8 | inactive: -0.065
103 | AGACCUUCGAUGUCAACGATT against SOX9 | inactive: 0.775
104 | GAGUCUGUGGUGUACCUAATT against SALL4 | inactive: -0.344
105 | GAUCGUUUGAGAGAACAAATT against L3MBTL4 | inactive: -0.189
106 | CCAGCAAUCCUGACUUGUUTT against TGFBR2 | inactive: 0.8
107 | CCACGUGUUUCAAAGCAGATT against GPR172B | inactive: 0.184

As entered above.
Entry of GACGGAUUCAAGUACCUUUTT against AMFR under median seed-adjusted z-score: inactive: -0.15
Entry of CGUCAAUUCCGGUACACUUTT against PIGM under median seed-adjusted z-score: active: 1.36
Entry of GCAUGCAGAUGUUCGGCAATT against CACNA1F under median seed-adjusted z-score: inactive: 0.22
Entry of CCAUCAAUGGAGAUCCGGATT against ADAMTS4 under median seed-adjusted z-score: inactive: -0.0153
